# Data published in the supplement of paper PMC6411743.
# ± gives the standard deviation of the averaged measurements. Only a part is listed here, and it is no random draw.
# Assays:
# Assay in all cases: NP40-soluble protein abundance relative to vehicle (solubility fold change) (ratio); higher = more soluble protein in presence of AMP-PNP
# [1] = target: T1, UniProt Q9NUS5
# T1 sequence (whole entry): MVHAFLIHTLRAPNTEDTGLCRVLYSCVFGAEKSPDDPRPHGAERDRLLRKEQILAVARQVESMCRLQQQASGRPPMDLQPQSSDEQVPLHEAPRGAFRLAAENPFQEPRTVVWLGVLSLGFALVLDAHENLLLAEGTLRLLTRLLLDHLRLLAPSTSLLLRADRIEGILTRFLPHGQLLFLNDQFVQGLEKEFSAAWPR
# In short: (§1)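 Data come from three independent experiments in which Dounce-homogenised Jurkat crude lysate was treated at eight concentrations from 0.1 to 10 mM. Treatment ran 10 min at room temperature and then 3 min at 37 °C, after which 0.8% NP40 and benzonase were added for 60 min at 4 °C before ultracentrifugation. The supernatant underwent TMT labelling and LC-MS/MS, and vsn-normalised intensities were expressed as fold change against the detergent-processed vehicle in each replicate.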
# [2] = target: T2, UniProt Q9NUU7 and related entries
# T2 sequence (whole entry): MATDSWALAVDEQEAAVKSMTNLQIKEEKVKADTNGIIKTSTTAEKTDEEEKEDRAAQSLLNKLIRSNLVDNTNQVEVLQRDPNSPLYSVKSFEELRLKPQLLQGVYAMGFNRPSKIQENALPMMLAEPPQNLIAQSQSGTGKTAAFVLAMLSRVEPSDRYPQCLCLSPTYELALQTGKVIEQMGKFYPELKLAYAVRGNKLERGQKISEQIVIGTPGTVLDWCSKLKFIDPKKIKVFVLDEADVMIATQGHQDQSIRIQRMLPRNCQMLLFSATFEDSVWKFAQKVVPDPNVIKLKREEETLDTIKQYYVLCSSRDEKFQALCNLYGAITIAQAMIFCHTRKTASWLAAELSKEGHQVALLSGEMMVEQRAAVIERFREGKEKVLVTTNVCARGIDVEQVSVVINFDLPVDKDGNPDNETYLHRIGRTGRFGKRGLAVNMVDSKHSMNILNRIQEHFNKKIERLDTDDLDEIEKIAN
# In short: as §1
# [3] = target: T3, UniProt Q9NVH6 and related entries
# T3 sequence (whole entry): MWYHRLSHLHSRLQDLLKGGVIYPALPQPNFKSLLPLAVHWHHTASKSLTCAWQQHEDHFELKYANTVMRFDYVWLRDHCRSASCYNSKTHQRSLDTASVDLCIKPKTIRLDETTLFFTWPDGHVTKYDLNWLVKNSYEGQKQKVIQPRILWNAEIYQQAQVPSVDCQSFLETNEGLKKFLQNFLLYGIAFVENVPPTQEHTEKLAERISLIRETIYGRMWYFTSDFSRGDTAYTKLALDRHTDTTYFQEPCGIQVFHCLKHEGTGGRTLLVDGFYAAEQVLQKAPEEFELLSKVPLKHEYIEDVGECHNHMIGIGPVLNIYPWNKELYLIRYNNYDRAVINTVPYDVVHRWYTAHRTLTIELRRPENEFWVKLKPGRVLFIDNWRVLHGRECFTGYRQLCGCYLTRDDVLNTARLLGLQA
# In short: as §1
# [4] = target: T4, UniProt Q9NZ52-3|Q9NZ52-4|Q9NZ52 and related entries
# T4 sequence (whole entry): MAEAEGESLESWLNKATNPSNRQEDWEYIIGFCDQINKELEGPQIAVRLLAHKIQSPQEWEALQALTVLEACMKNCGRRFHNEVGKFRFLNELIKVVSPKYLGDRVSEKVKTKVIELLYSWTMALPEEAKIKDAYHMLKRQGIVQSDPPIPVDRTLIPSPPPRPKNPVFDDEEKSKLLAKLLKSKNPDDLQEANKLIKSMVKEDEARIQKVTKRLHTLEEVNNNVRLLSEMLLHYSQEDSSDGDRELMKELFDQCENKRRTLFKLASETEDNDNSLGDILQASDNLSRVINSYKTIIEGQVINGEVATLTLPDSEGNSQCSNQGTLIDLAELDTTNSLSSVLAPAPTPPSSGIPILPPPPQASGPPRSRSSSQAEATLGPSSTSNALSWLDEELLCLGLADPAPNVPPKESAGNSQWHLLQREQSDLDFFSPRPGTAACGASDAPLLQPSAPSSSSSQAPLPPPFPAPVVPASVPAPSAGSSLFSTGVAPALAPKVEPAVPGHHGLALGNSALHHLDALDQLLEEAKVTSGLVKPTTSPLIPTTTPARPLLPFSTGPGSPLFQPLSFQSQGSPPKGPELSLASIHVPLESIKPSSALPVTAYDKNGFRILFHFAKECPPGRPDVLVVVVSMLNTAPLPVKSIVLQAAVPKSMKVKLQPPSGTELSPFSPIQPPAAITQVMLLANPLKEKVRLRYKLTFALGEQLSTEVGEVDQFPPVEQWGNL
# In short: as §1
# [5] = target: T5, UniProt Q9P109
# T5 sequence (whole entry): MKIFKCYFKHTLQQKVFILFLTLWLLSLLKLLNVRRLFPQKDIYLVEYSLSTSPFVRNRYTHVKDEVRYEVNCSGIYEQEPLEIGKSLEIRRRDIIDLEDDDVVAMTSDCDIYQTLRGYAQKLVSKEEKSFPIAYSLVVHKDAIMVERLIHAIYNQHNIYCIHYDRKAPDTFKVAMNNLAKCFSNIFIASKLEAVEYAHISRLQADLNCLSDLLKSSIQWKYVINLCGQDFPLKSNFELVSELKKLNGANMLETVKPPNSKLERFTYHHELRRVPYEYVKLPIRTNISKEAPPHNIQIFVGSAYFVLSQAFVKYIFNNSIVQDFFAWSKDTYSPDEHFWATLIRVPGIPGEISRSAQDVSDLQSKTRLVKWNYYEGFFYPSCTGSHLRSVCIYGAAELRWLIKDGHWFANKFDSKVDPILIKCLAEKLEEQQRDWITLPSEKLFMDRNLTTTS
# In short: as §1
compound,measurement,setting,value
Nc1ncnc2c1ncn2[C@@H]1O[C@H](COP(=O)(O)OP(=O)(O)NP(=O)(O)O)[C@@H](O)[C@H]1O [adenylyl imidodiphosphate],NP40-soluble protein abundance,[1]; concentration: 8mM,0.938 ± 0.038
same,NP40-soluble protein abundance,[1]; concentration: 10mM,0.936 ± 0.041
same,NP40-soluble protein abundance,[2]; concentration: 1mM,1.04 ± 0.017
same,NP40-soluble protein abundance,[2]; concentration: 2mM,0.987 ± 0.048
same,NP40-soluble protein abundance,[2]; concentration: 4mM,1.02 ± 0.031
same,NP40-soluble protein abundance,[2]; concentration: 6mM,1.028 ± 0.01
same,NP40-soluble protein abundance,[2]; concentration: 8mM,1.03 ± 0.013
same,NP40-soluble protein abundance,[2]; concentration: 10mM,1 ± 0.011
same,NP40-soluble protein abundance,[3]; concentration: 1mM,0.969 ± 0.051
same,NP40-soluble protein abundance,[3]; concentration: 2mM,0.9817 ± 0.0096
same,NP40-soluble protein abundance,[3]; concentration: 4mM,0.984 ± 0.06
same,NP40-soluble protein abundance,[3]; concentration: 6mM,0.972 ± 0.065
same,NP40-soluble protein abundance,[3]; concentration: 8mM,0.985 ± 0.018
same,NP40-soluble protein abundance,[3]; concentration: 10mM,0.969 ± 0.046
same,NP40-soluble protein abundance,[4]; concentration: 1mM,1.02 ± 0.027
same,NP40-soluble protein abundance,[4]; concentration: 2mM,1.03 ± 0.043
same,NP40-soluble protein abundance,[4]; concentration: 4mM,1 ± 0.026
same,NP40-soluble protein abundance,[4]; concentration: 6mM,0.992 ± 0.035
same,NP40-soluble protein abundance,[4]; concentration: 8mM,0.963 ± 0.028
same,NP40-soluble protein abundance,[4]; concentration: 10mM,0.964 ± 0.025
same,NP40-soluble protein abundance,[5]; concentration: 1mM,0.98 ± 0.011
same,NP40-soluble protein abundance,[5]; concentration: 2mM,0.973 ± 0.018
same,NP40-soluble protein abundance,[5]; concentration: 4mM,0.962 ± 0.044
same,NP40-soluble protein abundance,[5]; concentration: 6mM,0.949 ± 0.011
same,NP40-soluble protein abundance,[5]; concentration: 8mM,0.954 ± 0.028
same,NP40-soluble protein abundance,[5]; concentration: 10mM,0.926 ± 0.0081

# Given with tabs: entries from further up.
compound	measurement	setting	value
Nc1ncnc2c1ncn2[C@@H]1O[C@H](COP(=O)(O)OP(=O)(O)NP(=O)(O)O)[C@@H](O)[C@H]1O [adenylyl imidodiphosphate]	NP40-soluble protein abundance	[4]; concentration: 1mM	1.02 ± 0.027
same	NP40-soluble protein abundance	[4]; concentration: 2mM	1.03 ± 0.043
